Data as given in patent publication US20220324954A1.
No constants are given. Whether binding was seen depends on the method and setting. Binding calls can cover weak binding; strength is not graded here.

Experiments:
rabbit VEGFA (rabbit) [1] = test: ELISA (FIG. 9 legend)
rabbit VEGFA (rabbit) [2] = test: ELISA, antibody coated at 1 ug/mL, biotinylated ligand at 1 ug/mL, SA-HRP (FIG. 9)

binding (rabbit VEGFA (rabbit) [1]): binds | binding (rabbit VEGFA (rabbit) [2]): binds
B1: hu bi-Nb24(Y) (VHH)
chain: EVQLQESGGGLVQPGGSLRLSCTASGFTFDDPDVGWFRQAPGNECELVSTISKDGSTYYTDSVKGRFTISRDYAKNTVYLQMNSLRAEDTAVYYCAADSNPIAPIRTCLGWYNYWGQGTLVTVSSGGGGSGGGSEVQLQESGGGLVQPGGSLRLSCTASGFTFDDPDVGWFRQAPGNECELVSTISKDGSTYYTDSVKGRFTISRDYAKNTVYLQMNSLRAEDTAVYYCAADSNPIAPIRTCLGWYNYWGQGTLVTVSS
